# Data taken from the supplement of paper PMC12067093, “Discovery and optimisation of a covalent ligand for TRIM25 and its application to targeted protein ubiquitination” (Chemical Science, 2025).
# Sequences of proteins named here, by UniProt entry; tags and fusion partners are left off. A change or cut given only in a name is not applied to a line headed by its entry.
# UniProt Q86US8: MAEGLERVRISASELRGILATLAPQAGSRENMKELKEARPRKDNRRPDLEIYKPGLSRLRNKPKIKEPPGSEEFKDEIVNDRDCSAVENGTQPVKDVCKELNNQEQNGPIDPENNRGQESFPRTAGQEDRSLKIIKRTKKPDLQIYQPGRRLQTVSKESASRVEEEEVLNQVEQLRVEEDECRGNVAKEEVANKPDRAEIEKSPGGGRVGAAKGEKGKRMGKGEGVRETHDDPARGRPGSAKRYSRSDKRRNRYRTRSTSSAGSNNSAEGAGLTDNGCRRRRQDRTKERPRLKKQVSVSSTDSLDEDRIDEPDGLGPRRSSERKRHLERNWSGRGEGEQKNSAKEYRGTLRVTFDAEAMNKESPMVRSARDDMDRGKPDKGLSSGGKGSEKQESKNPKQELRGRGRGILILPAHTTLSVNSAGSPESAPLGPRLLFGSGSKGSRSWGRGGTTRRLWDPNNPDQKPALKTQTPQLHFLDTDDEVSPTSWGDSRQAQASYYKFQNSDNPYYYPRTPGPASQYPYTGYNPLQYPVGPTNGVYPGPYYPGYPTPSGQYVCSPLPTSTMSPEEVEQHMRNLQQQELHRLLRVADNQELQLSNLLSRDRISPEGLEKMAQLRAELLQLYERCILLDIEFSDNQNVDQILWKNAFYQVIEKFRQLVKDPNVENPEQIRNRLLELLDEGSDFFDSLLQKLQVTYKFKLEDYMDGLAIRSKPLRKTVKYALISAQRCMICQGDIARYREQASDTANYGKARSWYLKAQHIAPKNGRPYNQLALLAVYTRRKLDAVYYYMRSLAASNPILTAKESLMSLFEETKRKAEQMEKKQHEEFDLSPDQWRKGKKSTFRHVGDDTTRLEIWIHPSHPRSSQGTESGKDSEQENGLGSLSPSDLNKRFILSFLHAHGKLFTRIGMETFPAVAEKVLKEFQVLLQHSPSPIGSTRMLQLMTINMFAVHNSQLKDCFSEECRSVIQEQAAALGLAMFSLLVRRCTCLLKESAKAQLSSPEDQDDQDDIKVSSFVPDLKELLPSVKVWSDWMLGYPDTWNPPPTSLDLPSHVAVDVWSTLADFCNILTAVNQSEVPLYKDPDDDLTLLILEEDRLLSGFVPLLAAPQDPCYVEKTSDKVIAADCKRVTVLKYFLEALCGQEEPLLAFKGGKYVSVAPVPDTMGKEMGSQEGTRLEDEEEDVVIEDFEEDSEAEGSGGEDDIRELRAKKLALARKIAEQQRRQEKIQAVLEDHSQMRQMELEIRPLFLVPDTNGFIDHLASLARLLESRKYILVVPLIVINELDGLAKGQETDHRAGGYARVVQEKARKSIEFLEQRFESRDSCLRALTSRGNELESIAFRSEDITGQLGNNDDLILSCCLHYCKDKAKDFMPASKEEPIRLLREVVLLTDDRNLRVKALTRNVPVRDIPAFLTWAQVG
# UniProt Q14BN4: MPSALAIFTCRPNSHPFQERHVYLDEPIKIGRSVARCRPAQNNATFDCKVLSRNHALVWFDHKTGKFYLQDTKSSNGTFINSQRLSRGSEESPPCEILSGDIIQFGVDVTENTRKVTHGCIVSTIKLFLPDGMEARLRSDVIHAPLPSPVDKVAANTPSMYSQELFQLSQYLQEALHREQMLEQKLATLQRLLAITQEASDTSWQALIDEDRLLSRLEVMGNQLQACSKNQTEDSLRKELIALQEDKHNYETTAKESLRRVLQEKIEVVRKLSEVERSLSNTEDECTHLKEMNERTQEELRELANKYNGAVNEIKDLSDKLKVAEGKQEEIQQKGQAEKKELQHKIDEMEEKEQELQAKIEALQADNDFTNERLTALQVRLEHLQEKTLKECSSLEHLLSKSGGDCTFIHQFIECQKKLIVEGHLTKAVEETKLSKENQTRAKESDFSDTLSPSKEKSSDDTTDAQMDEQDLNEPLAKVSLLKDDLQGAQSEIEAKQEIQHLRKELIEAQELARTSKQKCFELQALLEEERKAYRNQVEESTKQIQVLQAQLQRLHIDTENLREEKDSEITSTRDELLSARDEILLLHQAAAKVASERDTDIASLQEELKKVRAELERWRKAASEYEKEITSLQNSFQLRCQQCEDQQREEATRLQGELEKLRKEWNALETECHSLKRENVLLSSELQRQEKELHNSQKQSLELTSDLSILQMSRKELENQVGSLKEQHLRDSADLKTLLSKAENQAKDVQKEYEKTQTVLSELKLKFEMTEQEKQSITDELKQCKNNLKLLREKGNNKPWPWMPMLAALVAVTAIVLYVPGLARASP
# UniProt O14745: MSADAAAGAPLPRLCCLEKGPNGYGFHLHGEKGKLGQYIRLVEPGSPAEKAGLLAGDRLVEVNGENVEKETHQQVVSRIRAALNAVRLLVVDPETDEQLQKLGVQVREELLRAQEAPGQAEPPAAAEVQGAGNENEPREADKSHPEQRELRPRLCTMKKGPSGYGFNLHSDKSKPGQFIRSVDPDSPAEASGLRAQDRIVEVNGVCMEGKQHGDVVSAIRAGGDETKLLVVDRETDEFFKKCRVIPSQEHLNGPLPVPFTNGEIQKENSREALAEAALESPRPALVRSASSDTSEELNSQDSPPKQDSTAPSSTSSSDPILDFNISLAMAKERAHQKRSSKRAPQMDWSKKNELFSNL
# UniProt Q68D06: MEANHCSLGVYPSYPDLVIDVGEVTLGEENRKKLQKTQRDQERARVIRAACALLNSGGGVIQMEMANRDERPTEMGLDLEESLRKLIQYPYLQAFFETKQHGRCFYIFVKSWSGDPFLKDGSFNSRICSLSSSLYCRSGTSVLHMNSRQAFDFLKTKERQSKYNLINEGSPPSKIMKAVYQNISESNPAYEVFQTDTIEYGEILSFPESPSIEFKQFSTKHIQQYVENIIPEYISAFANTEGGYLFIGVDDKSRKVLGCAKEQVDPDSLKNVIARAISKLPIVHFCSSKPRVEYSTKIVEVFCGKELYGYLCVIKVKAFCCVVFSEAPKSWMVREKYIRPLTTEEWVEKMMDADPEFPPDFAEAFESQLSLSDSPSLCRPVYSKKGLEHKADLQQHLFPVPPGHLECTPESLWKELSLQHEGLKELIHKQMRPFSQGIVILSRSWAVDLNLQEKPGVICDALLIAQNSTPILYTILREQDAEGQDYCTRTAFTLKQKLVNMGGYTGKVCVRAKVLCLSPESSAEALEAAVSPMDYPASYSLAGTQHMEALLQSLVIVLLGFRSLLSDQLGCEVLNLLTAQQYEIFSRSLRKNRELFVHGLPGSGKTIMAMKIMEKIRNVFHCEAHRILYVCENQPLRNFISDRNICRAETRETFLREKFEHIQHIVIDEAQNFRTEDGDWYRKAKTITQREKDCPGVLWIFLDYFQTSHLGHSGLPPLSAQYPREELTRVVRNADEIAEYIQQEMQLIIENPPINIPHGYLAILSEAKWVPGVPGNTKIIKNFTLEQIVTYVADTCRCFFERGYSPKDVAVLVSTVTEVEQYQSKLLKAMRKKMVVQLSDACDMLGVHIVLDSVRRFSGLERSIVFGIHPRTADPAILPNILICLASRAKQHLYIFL
# UniProt Q92922, whole entry, looked up: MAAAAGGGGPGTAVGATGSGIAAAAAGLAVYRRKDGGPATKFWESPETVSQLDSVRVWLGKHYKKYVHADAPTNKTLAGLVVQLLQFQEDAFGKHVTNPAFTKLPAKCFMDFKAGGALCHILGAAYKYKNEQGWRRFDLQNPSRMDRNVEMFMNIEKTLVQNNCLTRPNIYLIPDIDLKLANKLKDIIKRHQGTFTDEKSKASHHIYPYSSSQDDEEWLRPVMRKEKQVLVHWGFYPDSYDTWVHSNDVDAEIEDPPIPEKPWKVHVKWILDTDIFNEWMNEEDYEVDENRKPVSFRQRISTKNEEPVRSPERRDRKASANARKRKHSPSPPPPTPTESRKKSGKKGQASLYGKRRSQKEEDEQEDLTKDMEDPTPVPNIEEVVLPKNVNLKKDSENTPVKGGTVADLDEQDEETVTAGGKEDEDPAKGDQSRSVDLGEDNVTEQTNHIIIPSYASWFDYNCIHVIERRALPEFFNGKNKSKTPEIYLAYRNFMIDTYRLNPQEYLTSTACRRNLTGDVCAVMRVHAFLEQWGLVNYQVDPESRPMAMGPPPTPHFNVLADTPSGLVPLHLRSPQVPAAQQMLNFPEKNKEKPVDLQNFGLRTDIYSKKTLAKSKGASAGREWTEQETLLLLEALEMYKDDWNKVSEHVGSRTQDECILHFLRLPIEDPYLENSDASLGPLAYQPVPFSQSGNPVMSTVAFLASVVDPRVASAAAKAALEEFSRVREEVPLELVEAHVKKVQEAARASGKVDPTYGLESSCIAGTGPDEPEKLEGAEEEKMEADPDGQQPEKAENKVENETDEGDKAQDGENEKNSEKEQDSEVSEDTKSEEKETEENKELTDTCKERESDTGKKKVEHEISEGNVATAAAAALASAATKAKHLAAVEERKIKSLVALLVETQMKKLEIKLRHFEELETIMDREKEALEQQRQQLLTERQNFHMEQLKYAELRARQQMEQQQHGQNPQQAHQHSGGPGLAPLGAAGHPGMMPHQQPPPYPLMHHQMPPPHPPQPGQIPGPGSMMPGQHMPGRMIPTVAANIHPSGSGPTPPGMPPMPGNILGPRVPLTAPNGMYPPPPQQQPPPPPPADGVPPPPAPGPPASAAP
# UniProt P03973: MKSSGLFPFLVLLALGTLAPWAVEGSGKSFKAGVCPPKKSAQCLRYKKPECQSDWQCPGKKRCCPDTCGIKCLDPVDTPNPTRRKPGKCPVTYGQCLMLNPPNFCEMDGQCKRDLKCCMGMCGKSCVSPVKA
# UniProt Q8IY18: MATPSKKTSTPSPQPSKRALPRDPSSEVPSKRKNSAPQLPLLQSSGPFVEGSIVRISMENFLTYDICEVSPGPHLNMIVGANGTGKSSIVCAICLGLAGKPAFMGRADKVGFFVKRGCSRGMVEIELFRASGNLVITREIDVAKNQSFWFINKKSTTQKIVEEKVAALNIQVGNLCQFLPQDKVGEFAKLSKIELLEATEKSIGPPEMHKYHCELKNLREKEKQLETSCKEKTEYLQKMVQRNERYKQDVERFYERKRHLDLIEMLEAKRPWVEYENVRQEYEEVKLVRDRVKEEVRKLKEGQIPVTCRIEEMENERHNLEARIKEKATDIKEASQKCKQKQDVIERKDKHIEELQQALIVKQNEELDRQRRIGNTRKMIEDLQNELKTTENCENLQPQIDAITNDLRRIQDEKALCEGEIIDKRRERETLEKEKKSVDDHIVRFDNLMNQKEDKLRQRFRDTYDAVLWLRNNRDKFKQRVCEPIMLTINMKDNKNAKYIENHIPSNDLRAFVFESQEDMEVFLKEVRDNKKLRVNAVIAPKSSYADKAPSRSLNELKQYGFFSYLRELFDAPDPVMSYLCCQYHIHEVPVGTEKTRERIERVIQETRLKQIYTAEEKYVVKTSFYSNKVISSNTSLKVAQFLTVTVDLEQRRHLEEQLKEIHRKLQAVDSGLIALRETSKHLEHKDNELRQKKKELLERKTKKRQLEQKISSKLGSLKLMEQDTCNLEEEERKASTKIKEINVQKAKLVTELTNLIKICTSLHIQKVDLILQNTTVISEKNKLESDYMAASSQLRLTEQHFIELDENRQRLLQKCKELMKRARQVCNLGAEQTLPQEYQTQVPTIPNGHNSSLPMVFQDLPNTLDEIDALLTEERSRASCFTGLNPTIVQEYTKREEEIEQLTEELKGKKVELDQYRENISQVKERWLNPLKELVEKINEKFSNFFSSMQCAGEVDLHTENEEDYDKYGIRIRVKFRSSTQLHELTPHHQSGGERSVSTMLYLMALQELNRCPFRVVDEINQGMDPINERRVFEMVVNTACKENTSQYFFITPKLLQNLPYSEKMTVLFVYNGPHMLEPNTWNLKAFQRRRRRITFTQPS
# The other results are listed elsewhere or left out.
# Compound: Cc1cc(ccc1-c1ccccc1)C(=O)N1CCCN(CC1)C(=O)CCl [compound 10]
# Assay: probe-labelled cysteine peptide fold change vs DMSO (competition) (log2 fold change); higher = less target engagement (more negative = stronger competition)
# Conditions: THP-1, incubation time: 4 h
# 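Further: competitive profiling in live THP-1 cells: cysteine peptides tagged with an iodoacetamide desthiobiotin (IA-DTB) probe, intensity after compound treatment relative to DMSO-treated cells.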
Target,probe-labelled cysteine peptide fold change (10 µM),probe-labelled cysteine peptide fold change (50 µM)
SMG6_Q86US8_182_VEEEEVLNQVEQLRVEEDECR (UniProt Q86US8),-0.314,0.143
SLMAP_Q14BN4_120_KVTHGCIVSTIK (UniProt Q14BN4),0.226,0.0448
SMU1_Q2TAY7_219_SHVECAR (UniProt Q2TAY7),-0.121,0.135
SLK_Q9H2G2_552_DVISNTSDVIGTCEAADVAQK (UniProt Q9H2G2),-0.0425,-0.0714
SLFN11_Q7Z7L1_791_YLTVEQIMTCVADTCRR (UniProt Q7Z7L1),-0.0539,-0.577
SMCHD1_A6NHR9_474_GKRPIFECFWNGR (UniProt A6NHR9),-0.0837,-0.248
SLC9A3R1_O14745_15_LCCLEK (UniProt O14745),-0.0428,-0.489
SNRPB_P14678_43+45_HMNLILCDCDEFR (UniProt P14678),-0.0482,-0.0531
SLFN13_Q68D06_884_TADPAILPNILICLASR (UniProt Q68D06),0.0825,0.0105
SMARCC1_Q92922_520_NLTGDVCAVMR (UniProt Q92922),0.0738,0.013
SLPI_P03973_51+57_YKKPECQSDWQCPGK (UniProt P03973),-0.847,-1.07
SMU1_Q2TAY7_383_TTECSNTFK (UniProt Q2TAY7),-0.00672,0.086
SMG7_Q92540_537_NLSNNCDTGEK (UniProt Q92540),-0.339,0.384
SLITRK4_Q8IW52_580_NEILCPK (UniProt Q8IW52),-0.2,-0.364
SMC5_Q8IY18_176_VAALNIQVGNLCQFLPQDK (UniProt Q8IY18),-0.236,0.0618

# Whole records as entered above. Values in the order: probe-labelled cysteine peptide fold change (10 µM) | probe-labelled cysteine peptide fold change (50 µM)
# SMC5_Q8IY18_176_VAALNIQVGNLCQFLPQDK (UniProt Q8IY18) is listed with -0.236 | 0.0618
# SMG6_Q86US8_182_VEEEEVLNQVEQLRVEEDECR (UniProt Q86US8) is listed with -0.314 | 0.143
